# Measured values reported in patent publication US20220064250A1 (AKSTON BIOSCIENCES, published 2022).
# By UniProt entry, the sequences of proteins in these tests, tags left out. Residues count along the entry.
# UniProt P06213, residues 28-1382: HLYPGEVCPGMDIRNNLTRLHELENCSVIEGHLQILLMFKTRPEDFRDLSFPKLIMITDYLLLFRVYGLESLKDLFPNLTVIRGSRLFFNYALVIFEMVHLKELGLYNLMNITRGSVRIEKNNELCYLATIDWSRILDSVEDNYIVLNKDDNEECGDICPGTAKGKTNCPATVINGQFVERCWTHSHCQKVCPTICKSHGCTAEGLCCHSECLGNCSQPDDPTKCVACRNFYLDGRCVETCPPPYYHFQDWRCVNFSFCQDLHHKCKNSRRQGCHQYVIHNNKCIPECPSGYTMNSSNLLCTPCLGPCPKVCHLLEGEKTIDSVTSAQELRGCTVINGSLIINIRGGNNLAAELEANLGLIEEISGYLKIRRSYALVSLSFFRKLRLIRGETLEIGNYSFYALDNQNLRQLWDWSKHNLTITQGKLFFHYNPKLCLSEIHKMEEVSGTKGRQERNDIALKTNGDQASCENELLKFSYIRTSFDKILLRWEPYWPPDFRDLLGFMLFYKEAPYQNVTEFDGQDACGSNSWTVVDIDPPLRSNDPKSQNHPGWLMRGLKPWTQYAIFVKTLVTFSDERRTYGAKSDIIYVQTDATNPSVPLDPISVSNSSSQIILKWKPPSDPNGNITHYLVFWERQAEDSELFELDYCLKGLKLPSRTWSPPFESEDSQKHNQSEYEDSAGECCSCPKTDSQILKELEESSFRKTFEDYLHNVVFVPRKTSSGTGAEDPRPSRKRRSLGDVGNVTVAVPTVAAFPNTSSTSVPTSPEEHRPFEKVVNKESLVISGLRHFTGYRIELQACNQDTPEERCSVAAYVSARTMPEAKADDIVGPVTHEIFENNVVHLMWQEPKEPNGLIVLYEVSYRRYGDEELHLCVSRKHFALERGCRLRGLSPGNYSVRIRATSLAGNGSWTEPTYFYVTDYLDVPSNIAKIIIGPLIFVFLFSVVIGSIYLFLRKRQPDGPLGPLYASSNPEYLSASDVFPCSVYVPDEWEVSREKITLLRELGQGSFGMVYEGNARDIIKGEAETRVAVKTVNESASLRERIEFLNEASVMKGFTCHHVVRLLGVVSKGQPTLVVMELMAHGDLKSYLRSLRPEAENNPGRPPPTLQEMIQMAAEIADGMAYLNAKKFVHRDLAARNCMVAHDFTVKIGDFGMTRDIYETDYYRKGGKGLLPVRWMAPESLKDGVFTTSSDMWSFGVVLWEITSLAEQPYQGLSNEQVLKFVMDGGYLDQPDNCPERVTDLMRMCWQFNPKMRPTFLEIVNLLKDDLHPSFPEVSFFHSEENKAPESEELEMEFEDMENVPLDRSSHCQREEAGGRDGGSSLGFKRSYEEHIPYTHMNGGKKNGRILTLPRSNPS
# Results are given in words; binding and its absence hold for the method and conditions named. Some results given as binding are weak or reduced against the parent protein; the word gives no strength. Where a sequence is shown, tags or fusion partners need not be part of it.
# Biological target: human insulin receptor on human IM-9 cells (human) (UniProt P06213)
# Test: IM-9 insulin receptor competition assay
row,Binder,binding
1,"insulin-Fc fusion protein of SEQ ID NO: 47 (insulin polypeptide SEQ ID NO: 16, linker SEQ ID NO: 25, canine IgGB Fc fragment with cNg-S) (Fc fusion, Non-glycosylated homodimer made in HEK293 cells; also called cNg-NB139-S) FVNQHLCGSDLVEALALVCGERGFFYTDPTGGGPRRGIVEQCCHSICSLYQLENYCNGGGGAGGGGDCPKCPAPEMLGGPSVFIFPPKPKDTLLIARTPEVTCVVVDLDPEDPEVQISWFVDGKQMQTAKTQPREEQFSGTYRVVSVLPIGHQDWLKGKQFTCKVNNKALPSPIERTISKARGQAHQPSVYVLPPSREELSKNTVSLTCLIKDFFPPDIDVEWQSNGQQEPESKYRTTPPQLDEDGSYFLYSKLSVDKSRWQRGDTFICAVMHEALHNHYTQESLSHSPG",binds
2,"insulin-Fc fusion protein of SEQ ID NO: 51 (insulin polypeptide SEQ ID NO: 16, linker SEQ ID NO: 25, canine IgGB Fc fragment with des hinge D and cNg-K, i.e. … (Fc fusion, Non-glycosylated homodimer made in HEK293 cells; also called cNg-NB138-K) FVNQHLCGSDLVEALALVCGERGFFYTDPTGGGPRRGIVEQCCHSICSLYQLENYCNGGGGAGGGGCPKCPAPEMLGGPSVFIFPPKPKDTLLIARTPEVTCVVVDLDPEDPEVQISWFVDGKQMQTAKTQPREEQFKGTYRVVSVLPIGHQDWLKGKQFTCKVNNKALPSPIERTISKARGQAHQPSVYVLPPSREELSKNTVSLTCLIKDFFPPDIDVEWQSNGQQEPESKYRTTPPQLDEDGSYFLYSKLSVDKSRWQRGDTFICAVMHEALHNHYTQESLSHSPG",binds
